Earlier results as cited in patent publication US20200078478A1, “Structural molecule of peptide derivative for PSMA-targeting radiotherapy diagnosis and treatment” (priority 2018, published 2020).

How the values were obtained:
[1] = test system: prostate cancer; conditions: 100 patients with prostate cancer
[2] = test system: recurrent prostate cancer; conditions: PET/CT, nearly 100 patients
[3] = test system: prostate cancer; conditions: tumor diagnosis on the prostate

For C[N+](C)([11CH3])CCO [C-11-Choline], the positive rate [1] is given as 47%.

For NC1(C(=O)O)CC([18F])C1 (stereo not drawn) [F-18-FACBC, anti-1-amino-3-F-18-fluorocyclobutane-1-carboxylic acid], the “positive detection rate of metastatic tumor” value [2] is given as 96% and the “positive detection rate of primary prostate cancer” value [2] is given as 74%.

In the case of C[N+](C)(C[18F])CCO [F-18-FECH, F-18-fluoro-methylcholine], the sensitivity [3] is listed as 84.7% and the specificity [3] is listed as 91.1%.

In the case of [18F-].[Na+] [F-18-NaF], the positive rate [1] is listed as 27%.
